Test results: PubChem BioAssay AID192 (DTP/NCI, 2004)
The list is a part of this screen's results and no random one: it is rich in T/C values a quarter to a half above the control, in often repeated tests (any T/C) and in doses without a T/C. Other doses and runs of a compound stand elsewhere. T/C gives the treated animals as a percentage of the vehicle group. Some doses have a count of surviving animals in place of a T/C: the source files T/C as zero there, which appears to mark a toxic dose or a test without result, not a measured value. Some survivor counts are full or nearly so, which does not show that the dose was tolerated: survival well below the control is almost never listed, so the zero probably covers shortened survival too. Survivors were counted at the toxicity check, usually on the fifth day, unless a day is given; later deaths do not show. Schedule codes are those of the source, taken here to give the interval after Q, in days (D) or hours (H), and the number of doses after X. Counts like (3×) say how often a value occurs here. Some doses were run more than once; the results are listed from low to high. For survival time, this PubChem deposit counts one and a half times the control or more as active, and values a quarter to a half above the control carry no call in these data; other NCI protocols may use other cut-offs. Some T/C values carry the count of animals alive at the toxicity check (mostly the fifth day); without a count, all were alive then.

Tested on: BDF1 mice, B16 melanoma ip, median survival T/C
Assay: NCI In Vivo Anticancer Drug Screen. Data for tumor model B16 Melanoma (intraperitoneal) in B6D2F1 (BDF1) mice
Conditions: T/C endpoint: median survival time, higher T/C = longer survival
Summary of the method: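 Each result divides a survival or tumor-size measurement in the compound-treated group by the same measurement in the vehicle group.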

[1] = dose: 200.0 mg/kg/injection, schedule: Q01DX009 (ip), vehicle: Klucel (hydroxypropylcellulose) (HPC)
[2] = dose: 50.0 mg/kg/injection, schedule: Q01DX009 (ip), vehicle: saline
[3] = dose: 12.5 mg/kg/injection, schedule: Q01DX009 (ip), vehicle: Klucel (hydroxypropylcellulose) (HPC)
[4] = dose: 100.0 mg/kg/injection, schedule: Q01DX009 (ip), vehicle: Klucel (hydroxypropylcellulose) (HPC)
[5] = dose: 400.0 mg/kg/injection, schedule: Q01DX009 (ip), vehicle: Klucel (hydroxypropylcellulose) (HPC)
[6] = dose: 25.0 mg/kg/injection, schedule: Q01DX009 (ip), vehicle: Klucel (hydroxypropylcellulose) (HPC)
[7] = dose: 50.0 mg/kg/injection, schedule: Q01DX009 (ip), vehicle: Klucel (hydroxypropylcellulose) (HPC)
[8] = dose: 400.0 mg/kg/injection, schedule: Q01DX009 (ip), vehicle: saline with Tween-80
[9] = dose: 100.0 mg/kg/injection, schedule: Q01DX009 (ip), vehicle: saline
[10] = dose: 200.0 mg/kg/injection, schedule: Q01DX009 (ip), vehicle: saline
[11] = dose: 400.0 mg/kg/injection, schedule: Q01DX009 (ip), vehicle: saline

CCCCCCCCCCCCCCCC(=O)OCC1OC(n2ccc(N)nc2=O)C(O)C1O (configuration not stated)
T/C (dose: 7.5 mg/kg/injection, schedule: Q01DX009 (ip), vehicle: saline with Tween-80): 142 % of control | T/C (dose: 8.0 mg/kg/injection, schedule: Q01DX009 (ip), vehicle: saline with Tween-80): 137 % of control [9 of 10 alive] | T/C (dose: 15.0 mg/kg/injection, schedule: Q01DX009 (ip), vehicle: saline with Tween-80): 140 % of control | T/C (dose: 18.75 mg/kg/injection, schedule: Q01DX001 (ip), vehicle: saline): 144 % of control | T/C (dose: 50.0 mg/kg/injection, schedule: Q04DX003 (ip), vehicle: saline with Tween-80): 143 % of control | survivor count (dose: 60.0 mg/kg/injection, schedule: Q01DX009 (ip), vehicle: saline with Tween-80): 6 of 6 | survivor count (dose: 100.0 mg/kg/injection, schedule: Q04DX003 (ip), vehicle: saline with Tween-80): 10 of 10 | survivor count (dose: 120.0 mg/kg/injection, schedule: Q01DX009 (ip), vehicle: saline with Tween-80): 6 of 6 | survivor count (dose: 150.0 mg/kg/injection, schedule: Q01DX001 (ip), vehicle: saline): 8 of 10 | survivor count (dose: 200.0 mg/kg/injection, schedule: Q04DX003 (ip), vehicle: saline with Tween-80): 10 of 10 | survivor count (dose: 300.0 mg/kg/injection, schedule: Q01DX001 (ip), vehicle: saline): 9 of 10 | survivor count (dose: 400.0 mg/kg/injection, schedule: Q04DX003 (ip), vehicle: saline with Tween-80): 9 of 10

CC[C@@]1(O)C(=O)OCc2c1cc1n(c2=O)Cc2cc3ccccc3nc2-1
T/C (dose: 0.2 mg/kg/injection, schedule: Q01DX009 (ip), vehicle: other): 140 % of control | survivor count (dose: 1.57 mg/kg/injection, schedule: Q01DX009 (ip), vehicle: other): 10 of 10 | survivor count (dose: 3.13 mg/kg/injection, schedule: Q01DX009 (ip), vehicle: other): 5 of 10 | survivor count (dose: 6.25 mg/kg/injection, schedule: Q01DX009 (ip), vehicle: other): 0 of 10

CS(=O)(=O)OCCCCCCCCCOS(C)(=O)=O
survivor count [1]: 10 of 10

O=S(=O)(O)O.[W]
survivor count (dose: 3.0 mg/kg/injection, schedule: Q01DX009 (ip), vehicle: saline): 9 of 10 (2×) | survivor count (dose: 6.0 mg/kg/injection, schedule: Q01DX009 (ip), vehicle: saline): 10 of 10 (2×)

CCCCC[C@H](CN(C)C)[C@H](O)/C=C/c1ccc(Cl)cc1
survivor count [2]: 9 of 10

Cc1cccc(C)c1NC(=O)c1ccccc1
survivor count [3]: 10 of 10 | survivor count (dose: 25.0 mg/kg/injection, schedule: Q01DX009 (ip), vehicle: saline): 10 of 10 | survivor count [4]: 10 of 10 | survivor count [1]: 10 of 10 | survivor count [5]: 10 of 10

COc1ccc2c(c1OC)C13CCCCC1C(C2)[N+](C)(C)CC3 (configuration not stated)
survivor count (dose: 0.09 mg/kg/injection, schedule: Q01DX009 (ip), vehicle: Klucel (hydroxypropylcellulose) (HPC)): 10 of 10 | survivor count (dose: 0.19 mg/kg/injection, schedule: Q01DX009 (ip), vehicle: Klucel (hydroxypropylcellulose) (HPC)): 10 of 10 | survivor count (dose: 0.39 mg/kg/injection, schedule: Q01DX009 (ip), vehicle: Klucel (hydroxypropylcellulose) (HPC)): 10 of 10 | survivor count (dose: 1.56 mg/kg/injection, schedule: Q01DX009 (ip), vehicle: Klucel (hydroxypropylcellulose) (HPC)): 10 of 10 | survivor count (dose: 6.25 mg/kg/injection, schedule: Q01DX009 (ip), vehicle: Klucel (hydroxypropylcellulose) (HPC)): 10 of 10 | survivor count [3]: 10 of 10 | survivor count [6]: 10 of 10 | survivor count [7]: 9 of 10

Nc1ccc(N=Nc2ccccc2)c(N)c1
survivor count (dose: 300.0 mg/kg/injection, schedule: Q01DX009 (ip), vehicle: saline with Tween-80): 8 of 10 | survivor count [5]: 10 of 10 | survivor count [8]: 4 of 10

C=CCC(CC)C(=O)Cl (configuration not stated)
survivor count (dose: 200.0 mg/kg/injection, schedule: Q04DX003 (ip), vehicle: other): 4 of 10

O=C(Cl)C1(Br)CC2c3ccccc3C1([N+](=O)[O-])c1ccccc12 (configuration not stated)
survivor count [5]: 10 of 10

COc1cc(C(=O)N=Nc2c(O)[nH]c3ccc(Br)cc23)cc(OC)c1OC
survivor count [1]: 10 of 10 | survivor count [5]: 10 of 10

CCOC(=O)C(Br)C(=O)OCC
survivor count (dose: 9.37 mg/kg/injection, schedule: Q04DX003 (ip), vehicle: saline): 10 of 10 | survivor count (dose: 18.75 mg/kg/injection, schedule: Q04DX003 (ip), vehicle: saline): 10 of 10 | survivor count (dose: 37.5 mg/kg/injection, schedule: Q04DX003 (ip), vehicle: saline): 8 of 10 | survivor count (dose: 75.0 mg/kg/injection, schedule: Q04DX003 (ip), vehicle: saline): 4 of 10

CN1C2CCC1CC(OC(c1ccccc1)c1ccccc1)C2 (configuration not stated)
survivor count [2]: 0 of 10 | survivor count [9]: 0 of 10 | survivor count [10]: 0 of 10 | survivor count [11]: 0 of 10

CC1(C)N=C(N)N=C(N)N1c1ccc(OCCCNC(=O)Nc2cccc(S(=O)(=O)F)c2)c(Cl)c1
T/C [9]: 130 % of control

NC1(c2ccccc2)CCCCC1
survivor count [9]: 0 of 10 | survivor count [10]: 0 of 10 | survivor count [11]: 0 of 10

CC1CN=C(c2ccc(NC(=O)c3ccc(C(=O)Nc4ccc(C5=NCC(C)N5)cc4)cc3)cc2)N1 (configuration not stated)
survivor count [7]: 9 of 10 | survivor count [4]: 10 of 10 | survivor count [1]: 9 of 10 | survivor count [5]: 10 of 10

COC(=O)[C@@H]1[C@H](O)[C@H](C)[C@H](O)[C@@](C)(O)/C=C\C=C(C)C(=O)Nc2c(C)c(OC(C)=O)c3c(c2O)C(=O)C(C)=C2OCOC(=C23)C(C)=C[C@@](C)(O)[C@H](O)[C@@H](C)[C@H]1OC(C)=O
survivor count [4]: 9 of 10 | T/C [1]: 125 % of control | survivor count [1]: 7 of 10 and 10 of 10 | T/C [5]: 142 % of control | survivor count [5]: 3 of 10 | survivor count (dose: 600.0 mg/kg/injection, schedule: Q01DX009 (ip), vehicle: saline with Tween-80): 10 of 10

COc1ccc2c(ccc3oc([N+](=O)[O-])cc32)c1
survivor count [4]: 10 of 10 | survivor count [1]: 10 of 10

CC(C)[S][Pb]([c]1ccccc1)([c]1ccccc1)[c]1ccccc1
survivor count (dose: 1.2 mg/kg/injection, schedule: Q01DX009 (ip), vehicle: gum acacia): 10 of 10 | survivor count (dose: 2.5 mg/kg/injection, schedule: Q01DX009 (ip), vehicle: gum acacia): 10 of 10 | survivor count (dose: 5.0 mg/kg/injection, schedule: Q01DX009 (ip), vehicle: gum acacia): 10 of 10 | survivor count (dose: 10.0 mg/kg/injection, schedule: Q01DX009 (ip), vehicle: gum acacia): 7 of 10 | survivor count (dose: 20.0 mg/kg/injection, schedule: Q01DX009 (ip), vehicle: gum acacia): 0 of 10

CCNCc1cc(Nc2cc(C)nc(/N=C(\N)Nc3ccc(Cl)c(Cl)c3)n2)ccc1OC
survivor count [7]: 6 of 10

Cc1ccc(NC(=O)c2ccccc2C(=O)O)cc1Cl
survivor count [5]: 2 of 10

Cc1ncc(CNC(=O)N(CCCl)N=O)c(N)n1
survivor count [6]: 10 of 10 | survivor count (dose: 25.0 mg/kg/injection, schedule: Q01DX009 (ip), vehicle: suspension in saline): 10 of 10 | survivor count [7]: 10 of 10 | survivor count (dose: 50.0 mg/kg/injection, schedule: Q01DX009 (ip), vehicle: suspension in saline): 8 of 10 | survivor count [4]: 10 of 10 | survivor count [1]: 1 of 10 | survivor count [5]: 0 of 10

O=C(Nc1cccc(C(F)(F)F)c1)c1ccc(C(=O)Nc2cccc(C(F)(F)F)c2)cc1
survivor count (dose: 100.0 mg/kg/injection, schedule: Q01DX009 (ip), vehicle: saline with Tween-80): 10 of 10 | survivor count (dose: 200.0 mg/kg/injection, schedule: Q01DX009 (ip), vehicle: saline with Tween-80): 9 of 10 | survivor count [8]: 9 of 10

COc1ccccc1NC(=O)c1cc2ccccc2cc1O
T/C [10]: 128 % of control
